# Patent US20210220340A1, “COMPOSITION FOR PREVENTION OR TREATMENT OF NEURODEGENERATIVE DISEASE” (THE ASAN FOUNDATION, priority 2018, published 2021)
# System: all PDE isoforms
# Assay: HTS using all PDE isoforms as targets
# Type: biochemical
# Details: Example 18 screening, compared with cilostazol
# Method: Compounds included in the library of 800 FDA-approved drugs were diluted 1/4 from a concentration of 100 μM and dispensed into each well in 96-well plates, and mixed with a PDE reactant to allow a PDE reaction with the drug for 1 hour at a constant temperature.
# The experiment was carried out in the same manner as used in screening of the FDA-approved drug library. […] Each of the screening library drugs were diluted 1/4 from 100 μM and dispensed into each well in 96-well plates, and mixed with a PDE reactant, followed by allowing a reaction between the drug and PDE for 1 hour for storage. After a stop solution was mixed with a AMP detection agent, the mixture was dispensed at 20 μl per well to allow a reaction for 10 minutes, followed by immediately measuring luminescence, and the experiment was performed according to a protocol provided by the kit used herein.
# The first selection started with PDE3 as a target, and after candidate drugs were selected, all PDE isoforms were tested.
smiles,measurement,value
CNC(=O)c1ccccc1Sc1ccc2c(/C=C/c3ccccn3)n[nH]c2c1 [axitinib],inhibitory efficacy in all PDE isoforms,high inhibitory efficacy
